# Values joined by “and” are separate entries in the source; they are usually repeats but may differ in a detail not shown here. Identical values can stand only once. The list shows a part of the results. Single wells; the ratio to wells without odorant was worked out here, and repeats agree poorly.
# System: OR13A1 clone 1107
# Assay: odorant receptor activation (CRE luciferase / Renilla) (fold of no-odor wells); higher = more activation
# Details: 100 µM
row,SMILES,odorant receptor activation
1,CCCCCC(=O)O [caproic acid],0.883
2,C=C(C)C1CC=CCC1 (configuration not stated) [r-limonene],1.14 and 1.08
3,"CC1CCC(C(C)C)C(O)C1 (single isomer, unassigned; (+)) [(+)-menthol]",8.9
4,O=C1CCCCC1 [Cyclohexanone],0.588
5,CC(=O)c1ccccc1 [acetophenone],0.757
6,COC(=O)c1ccccc1 [methyl benzoate],0.689
7,O=CCc1ccccc1 [phenyl acetaldehyde],1.17
8,C=CC(C)(O)CCC=C(C)C (configuration not stated) [linalool],1.51
9,CCCCO [1-butanol],10.6
10,CC/C=C\CCO [cis-3-hexen-1-ol],0.712
11,CC1=CCC(C(C)(C)O)CC1 (configuration not stated) [terpineol],1.16
12,CC(C)CCC(=O)O [4-methylvaleric acid],10.1
13,CC1COCc2cc3c(cc21)C(C)(C)C(C)C3(C)C (configuration not stated) [galaxolide],4.79
14,"CC1CCC(C(C)C)C(O)C1 (single isomer, unassigned; (-)) [(-)-menthol]",12.1
15,CC(C)(C)c1ccc(CCC=O)cc1 [bourgeonal],0.992
16,CCCCCCCCOC(C)=O [octyl acetate],1.47
17,CC1=NC(C)SC1C (configuration not stated),0.788
18,CC12C=CCC1C1CCC3CC(=O)CCC3(C)C1CC2 (configuration not stated) [androstenone],8.12
19,C=C(C)C1CC=C(C)C(=O)C1 (configuration not stated) [r-carvone],0.958
20,CC12C=CCC1C1CCC3=CC(=O)CCC3(C)C1CC2 (configuration not stated) [androstadienone],2.37
21,CCCCCCCOC(C)=O [heptyl acetate],1.55
22,CC(C)C=O [isobutyraldehyde],0.967
23,CC=Cc1ccc(O)c(OC)c1 [isoeugenol],2.02
24,CCCC(=O)O [butyric acid],1.15
25,CCCCCC(C)=O [2-heptanone],0.542
26,CCCCCCC=O [heptaldehyde],0.644 and 1.72
27,CCCCCCCC=CC=O [2-decenal],16.7

# System: OR13C2 clone 1717
# Assay: as above
# Details: 100 µM
row,SMILES,odorant receptor activation
1,CCCCCC(=O)O [caproic acid],0.732
2,C=C(C)C1CC=CCC1 (configuration not stated) [r-limonene],1.19
3,"CC1CCC(C(C)C)C(O)C1 (single isomer, unassigned; (+)) [(+)-menthol]",0.589
4,O=CCc1ccccc1 [phenyl acetaldehyde],1.81
5,C=CC(C)(O)CCC=C(C)C (configuration not stated) [linalool],0.952
6,CCCCO [1-butanol],0.551
7,C=C(C)C1CCC2=CC(=O)CC(C)C2(C)C1 (configuration not stated) [amyl laurate],1.05
8,CC/C=C\CCO [cis-3-hexen-1-ol],0.876
9,CC1=CCC(C(C)(C)O)CC1 (configuration not stated) [terpineol],1.03
10,CC(C)CCC(=O)O [4-methylvaleric acid],0.863
11,"CC1CCC(C(C)C)C(O)C1 (single isomer, unassigned; (-)) [(-)-menthol]",0.761
12,CCCCCCCCOC(C)=O [octyl acetate],0.656
13,C=C(C)C1CC=C(C)C(=O)C1 (configuration not stated) [r-carvone],0.731
14,CCCCCCCOC(C)=O [heptyl acetate],0.998
15,CC(C)C=O [isobutyraldehyde],0.935
16,CC=Cc1ccc(O)c(OC)c1 [isoeugenol],4.39
17,CCCC(=O)O [butyric acid],0.766
18,CC(C)(O)CCCC1=CCC(C=O)CC1 (configuration not stated) [lyral],0.655
19,CCCCCCC=O [heptaldehyde],1.1
20,CCCCCCCC=CC=O [2-decenal],0.88
